We go through one substance from patent publication US20080226644A1.

Sequences of proteins named here, by UniProt entry; tags and fusion partners are left off. A change or cut given only in a name is not applied to a line headed by its entry. Residues count along the entry.
UniProt P35221, residues 2-906: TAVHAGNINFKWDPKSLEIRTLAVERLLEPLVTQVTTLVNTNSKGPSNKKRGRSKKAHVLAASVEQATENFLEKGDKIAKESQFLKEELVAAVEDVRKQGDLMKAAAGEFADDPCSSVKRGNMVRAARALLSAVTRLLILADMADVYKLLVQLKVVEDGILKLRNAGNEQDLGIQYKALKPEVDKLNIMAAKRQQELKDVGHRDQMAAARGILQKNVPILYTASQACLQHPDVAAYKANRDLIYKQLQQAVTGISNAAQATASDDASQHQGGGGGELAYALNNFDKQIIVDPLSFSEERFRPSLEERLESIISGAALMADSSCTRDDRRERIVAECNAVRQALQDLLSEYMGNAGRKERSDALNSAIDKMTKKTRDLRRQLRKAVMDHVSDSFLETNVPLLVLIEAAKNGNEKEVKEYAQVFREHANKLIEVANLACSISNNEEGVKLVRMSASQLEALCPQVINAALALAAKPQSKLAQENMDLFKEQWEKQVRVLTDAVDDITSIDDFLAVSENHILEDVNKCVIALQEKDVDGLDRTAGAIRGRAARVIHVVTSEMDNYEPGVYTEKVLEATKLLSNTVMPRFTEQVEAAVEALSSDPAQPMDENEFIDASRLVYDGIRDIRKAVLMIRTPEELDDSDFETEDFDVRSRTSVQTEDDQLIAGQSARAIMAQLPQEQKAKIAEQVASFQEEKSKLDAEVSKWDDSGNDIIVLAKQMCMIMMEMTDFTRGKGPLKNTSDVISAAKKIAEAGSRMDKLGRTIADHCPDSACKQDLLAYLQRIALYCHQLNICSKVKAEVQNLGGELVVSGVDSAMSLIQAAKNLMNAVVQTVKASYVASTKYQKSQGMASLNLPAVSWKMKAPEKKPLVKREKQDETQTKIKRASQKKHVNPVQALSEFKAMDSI
UniProt Q96KN1: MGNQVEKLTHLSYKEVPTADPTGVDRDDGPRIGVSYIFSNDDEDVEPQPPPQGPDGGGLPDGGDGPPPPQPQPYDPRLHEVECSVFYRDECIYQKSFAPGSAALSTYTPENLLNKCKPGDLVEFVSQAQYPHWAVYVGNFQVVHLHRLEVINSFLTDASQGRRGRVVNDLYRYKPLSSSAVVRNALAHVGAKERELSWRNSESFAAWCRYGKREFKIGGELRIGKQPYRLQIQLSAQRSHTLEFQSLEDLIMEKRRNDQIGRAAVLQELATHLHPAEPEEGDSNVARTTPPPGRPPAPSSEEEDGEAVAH

These are yes or no findings as the source states them, for the method shown. Some entries that bind do so weakly or less than the wild type.

The assay has as its target alpha-1 catenin (UniProt P35221). As to the kind of experiment: yeast two-hybrid, BCMP 101 as bait, cDNA library as prey.

With BCMP 101 (from UniProt Q96KN1 1-310), the binding result is “binds”.
